Results of single-concentration screens

Amino acid sequences for entries named in this document (tags omitted). Residues count along the entry.
UniProt P9WFT3, whole entry: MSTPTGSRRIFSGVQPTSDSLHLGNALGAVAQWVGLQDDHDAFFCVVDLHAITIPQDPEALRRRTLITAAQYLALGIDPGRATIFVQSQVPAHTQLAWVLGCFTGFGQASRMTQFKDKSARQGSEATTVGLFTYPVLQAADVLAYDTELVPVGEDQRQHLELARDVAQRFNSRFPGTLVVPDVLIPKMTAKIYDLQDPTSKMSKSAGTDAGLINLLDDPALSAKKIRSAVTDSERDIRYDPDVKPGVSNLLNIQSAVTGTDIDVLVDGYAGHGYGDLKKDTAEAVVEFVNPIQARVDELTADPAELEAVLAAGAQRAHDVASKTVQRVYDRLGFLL
UniProt Q8IDJ8, 1-583: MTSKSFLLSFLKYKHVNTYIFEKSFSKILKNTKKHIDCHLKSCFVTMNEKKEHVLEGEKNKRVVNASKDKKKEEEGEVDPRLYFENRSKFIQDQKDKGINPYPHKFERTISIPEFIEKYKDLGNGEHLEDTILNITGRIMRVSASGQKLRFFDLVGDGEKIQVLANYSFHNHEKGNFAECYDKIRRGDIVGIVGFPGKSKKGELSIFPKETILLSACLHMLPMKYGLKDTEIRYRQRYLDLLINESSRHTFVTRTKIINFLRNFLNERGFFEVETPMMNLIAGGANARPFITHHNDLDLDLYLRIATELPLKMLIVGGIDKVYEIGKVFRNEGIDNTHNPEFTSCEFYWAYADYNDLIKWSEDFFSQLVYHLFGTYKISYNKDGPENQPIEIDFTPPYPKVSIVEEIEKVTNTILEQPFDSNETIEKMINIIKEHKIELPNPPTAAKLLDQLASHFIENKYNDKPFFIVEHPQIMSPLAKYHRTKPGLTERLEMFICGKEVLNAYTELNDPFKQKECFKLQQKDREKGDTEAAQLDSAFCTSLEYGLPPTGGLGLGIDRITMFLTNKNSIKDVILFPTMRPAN
UniProt P9WNZ1, whole entry: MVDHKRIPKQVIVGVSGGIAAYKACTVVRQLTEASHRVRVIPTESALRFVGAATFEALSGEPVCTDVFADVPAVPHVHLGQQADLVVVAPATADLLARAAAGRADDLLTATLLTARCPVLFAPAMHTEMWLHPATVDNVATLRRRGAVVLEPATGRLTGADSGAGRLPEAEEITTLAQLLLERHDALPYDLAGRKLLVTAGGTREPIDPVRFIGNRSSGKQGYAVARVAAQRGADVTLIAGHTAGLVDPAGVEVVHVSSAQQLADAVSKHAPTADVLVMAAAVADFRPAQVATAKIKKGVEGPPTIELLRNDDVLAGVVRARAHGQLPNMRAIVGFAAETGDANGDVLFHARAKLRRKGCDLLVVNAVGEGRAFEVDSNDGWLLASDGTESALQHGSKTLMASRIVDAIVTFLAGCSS
UniProt P9WPC5, whole entry: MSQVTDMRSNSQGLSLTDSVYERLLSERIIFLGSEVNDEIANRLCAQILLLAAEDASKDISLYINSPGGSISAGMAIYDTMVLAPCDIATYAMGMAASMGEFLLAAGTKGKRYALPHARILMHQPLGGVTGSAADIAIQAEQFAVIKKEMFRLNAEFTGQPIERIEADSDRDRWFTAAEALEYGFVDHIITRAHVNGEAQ
UniProt P9WPC3, whole entry partner: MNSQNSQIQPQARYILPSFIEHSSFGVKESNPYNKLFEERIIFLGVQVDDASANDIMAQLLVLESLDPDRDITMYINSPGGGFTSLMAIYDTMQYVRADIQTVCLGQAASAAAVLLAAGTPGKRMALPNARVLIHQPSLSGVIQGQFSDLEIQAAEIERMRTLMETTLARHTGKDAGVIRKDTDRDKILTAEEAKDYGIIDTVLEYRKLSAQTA
UniProt Q4DA54, 1-478: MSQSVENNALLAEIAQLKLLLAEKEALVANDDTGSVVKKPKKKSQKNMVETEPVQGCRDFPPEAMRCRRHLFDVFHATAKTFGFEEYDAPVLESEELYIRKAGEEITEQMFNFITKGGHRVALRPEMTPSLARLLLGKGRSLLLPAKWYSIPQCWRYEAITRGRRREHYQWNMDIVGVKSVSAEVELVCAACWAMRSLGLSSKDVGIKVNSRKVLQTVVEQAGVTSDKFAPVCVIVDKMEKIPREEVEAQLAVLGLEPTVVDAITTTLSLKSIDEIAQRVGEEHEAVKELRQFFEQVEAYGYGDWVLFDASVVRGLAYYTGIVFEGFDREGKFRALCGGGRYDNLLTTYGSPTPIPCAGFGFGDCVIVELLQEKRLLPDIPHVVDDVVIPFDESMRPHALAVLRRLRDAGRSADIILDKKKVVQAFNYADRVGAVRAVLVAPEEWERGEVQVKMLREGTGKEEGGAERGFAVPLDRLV

MtTrpRS: 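Tryptophan-tRNA ligase, Mycobacterium tuberculosis (UniProt P9WFT3). Enzyme assay of tryptophanyl-tRNA synthetase; the read-out is not stated. Tested at 10 µM. Higher most likely means stronger inhibition; the record gives no direction and few retests gave an IC50. Size under these conditions: about 65,000 compounds, about 64 of them at 50% or above in at least one test.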
PfKRS1: 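Enzyme assay of the cytosolic lysyl-tRNA synthetase in 384-well plates, read by luminescence. Target: Lysine-tRNA ligase, Plasmodium falciparum 3D7 (UniProt Q8IDJ8). Concentration: 30 µM. Direction is inferred from only a few compounds that gave an IC50; most scored high, so higher reads as stronger inhibition. Of about 69,000 compounds tested this way, about 49 (0.071%) reached 50% or more in at least one test.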
CoaBC: 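Coenzyme A biosynthesis protein CoaBC, Mycobacterium tuberculosis (UniProt P9WNZ1). Enzyme assay of CoaBC with a phosphate dye (Biomol Green) read at 650 nm. Tested at 30 µM. Direction is inferred from only a few compounds that gave an IC50; most scored high, so higher reads as stronger inhibition. Most strong results did not repeat in a second test. Of about 67,000 compounds tested this way, about 40 (0.06%) reached 50% or more in at least one test.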
ClpP1P2: 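Protease assay of ClpP1P2, read by the AMC dye that it sets free. Target: ClpP1P2, Mycobacterium tuberculosis (UniProt P9WPC5 and UniProt P9WPC3). Compounds at 50 µM. Direction is inferred from only a few compounds that gave an IC50; most scored high, so higher reads as stronger inhibition. Most other retested compounds had strongly negative values. Size under these conditions: about 69,000 compounds, about 10 of them at 50% or above in at least one test.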
TcHisRS: 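Enzyme assay of histidyl-tRNA synthetase; the read-out is not stated. Target: Histidine-tRNA ligase, Trypanosoma cruzi CL Brener (UniProt Q4DA54). Concentration: 30 µM. The record gives no direction; compounds that gave an IC50 in retests scored well above the rest, so higher reads as stronger inhibition. About 69,000 compounds were tested under these conditions; 0.045% (about 31) showed 50% or more at least once.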

The filed quantity is “Percent Effect” (%). How 0% and 100% were set is not recorded. Most values in the screen are low, and negative values occur. The compounds are a random part of those screened. A dash means the value is not listed here; it may have been measured.

| # | compound | MtTrpRS | PfKRS1 | CoaBC | ClpP1P2 | TcHisRS |
|---|---|---|---|---|---|---|
| 1 | `O=C1C[C@H]2[C@@H](CCN2C(=O)c2ccoc2)N1CCN1CCOCC1` | 2.553 | 2.113 | 2.343 | -11.38 | 3.509 |
| 2 | `NC(=O)CN1CCC(c2cccc(Oc3ccccc3)n2)CC1` | 0.3903 | 2.807 | 11.19 | 14.5 | 5.639 |
| 3 | `COc1ccccc1[C@@H]1CN(Cc2cnn(C)c2C)C[C@H]1C(=O)O` | 13.2 | -5.997 | 9.27 | -4.102 | 1.058 |
| 4 | `Cc1c(C(=O)NCCC(=O)N2CCCC2)cccc1-c1ccccn1` | 1.224 | -3.406 | 1.129 | -5.297 | 5.473 |
| 5 | `Cc1ccc(C(=O)NC(C)Cn2cccn2)c(=O)[nH]1` (stereo not drawn) | 8.644 | 2.122 | 14.06 | -0.8889 | -4.255 |
| 6 | `COC[C@@]12CCO[C@@H]1CCN(C(=O)C1CC(F)(F)C1)C2` | -10.87 | 7.433 | 3.941 | 14.99 | 9.278 |
| 7 | `O=c1[nH]c2nc(N3CCOCC3)ncc2c(=O)n1-c1cccc(F)c1` | -2.034 | 7.223 | 2.658 | -0.8826 | 3.727 |
| 8 | `Cc1cnc(N2CCc3c(CNc4ccnc(C)n4)cncc3C2)nc1` | - | -0.7069 | 3.704 | 11.87 | 5.291 |
| 9 | `CC(C)c1ncc2c(n1)CN(Cc1nc(-c3cccnc3)no1)CC2` | -5.404 | 3.629 | 15.79 | -3.807 | 23.26 |
| 10 | `COc1cc(-c2nc3c([nH]2)CCCNC3=O)ccc1OC(C)C` | 3.742 | 5.984 | -2.357 | 9.146 | 5.051 |
| 11 | `O=C1NCC2(CCCN(C(=O)Nc3ccc4scnc4c3)CC2)O1` (stereo not drawn) | -1.019 | 4.61 | 1.463 | -0.9601 | -2.597 |
| 12 | `Cc1nc(CN2CC[C@@H](OCC3CC3)[C@@H]2Cc2cccnc2)cs1` | -4.083 | 1.713 | -9.136 | -13.81 | 7.477 |
| 13 | `CC(C)c1nccn1C(C)C(=O)NC1CCN(S(C)(=O)=O)CC1` (stereo not drawn) | -5.126 | 0.509 | 2.893 | 6.811 | 7.065 |
| 14 | `O=S(=O)(NCC1CCN(c2cnccn2)CC1)c1ccc(F)c(Cl)c1` | 1.018 | 5.732 | 4.611 | -8.929 | 12 |
| 15 | `Cc1c[nH]nc1C1CN(c2cnccn2)CCO1` (stereo not drawn) | -5.599 | 1.139 | 0.7177 | -13.8 | 1.916 |
| 16 | `c1coc(-c2[nH]c3ncccc3c2CN2CCCOCC2)c1` | - | 3.301 | 3.883 | 4.888 | 12.09 |
| 17 | `COCc1n[nH]c2c1CN(Cc1cccs1)C2` | 2.467 | 5.355 | 1.903 | -0.4532 | 5.376 |
| 18 | `CCN(CC)C(CNC(=O)c1ccnc(N(C)C)c1)c1ccsc1` (stereo not drawn) | -0.6256 | 4.675 | 8.549 | -1.35 | 5.82 |
| 19 | `CC(C)COC(C)C(=O)NCc1ccc(N(C)C)cc1` (stereo not drawn) | 1.016 | 1.608 | 0 | 16.06 | -3.396 |
| 20 | `O=C(c1ccc2c(c1)CCCC2)N1CCOCC1c1ncon1` (stereo not drawn) | -1.487 | 1.156 | 1.305 | 8.002 | 1.504 |
| 21 | `COc1ccc(CN(C)CC2CCCN2c2cccnn2)cc1F` (stereo not drawn) | -0.5473 | -3.452 | 5.128 | 26.11 | -1.132 |
| 22 | `Cc1ccc(CN(Cc2ccncc2)C2CCN(C)CC2)s1` | -2.417 | 3.345 | 0.5612 | 19.56 | 1.554 |
| 23 | `CN(Cc1nnc2ccccn12)C(=O)CC1CCCCC1` | 1.514 | -0.8124 | - | 2.804 | 7.006 |
| 24 | `CC1CN(CC(=O)NCc2ccc(F)cc2)CCN1c1nccs1` (stereo not drawn) | 2.352 | 2.558 | 12.95 | -9.688 | 1.739 |
| 25 | `Cc1ccc(CCC(=O)N2CCCC(n3cncn3)C2)c(C)c1` (stereo not drawn) | 0.4223 | 2.285 | 6.649 | 0.01377 | 3.396 |
| 26 | `CC(C)[C@@H]1CN(c2ncc(F)cn2)C[C@H]1NC(=O)N(C)C` | 1.762 | 3.674 | 9.752 | -10.31 | 8 |
| 27 | `CN(C)CCOCC1CN(C(=O)N2CCCC2)Cc2ccnn2C1` (stereo not drawn) | 0.3255 | 7.827 | -11.07 | -9.921 | 4.902 |
| 28 | `CN1CC(C(=O)N2CCN(c3cccc(Cl)c3)C(=O)C2)NC1=O` (stereo not drawn) | -1.872 | 0.2017 | 3.883 | 12.73 | 13.86 |
| 29 | `CC1(C)OCC(CNC(=O)c2cnn(-c3cccc(Cl)c3Cl)c2N)O1` (stereo not drawn) | - | 2.495 | 1.942 | 3.375 | 12.5 |
| 30 | `CCC1c2ccsc2CCN1C(=O)NCc1ccnc(N(C)C)c1` (stereo not drawn) | -5.08 | -0.2744 | 8.158 | -2.919 | 8.504 |
| 31 | `CCOc1ccccc1-n1c(CNC)n[nH]c1=O` | -2.469 | 1.702 | 0.2451 | -9.997 | 3.571 |
| 32 | `Cc1ccc(C(=O)N2C[C@@H]3[C@@H](C2)OCC(=O)N3Cc2cccnc2)o1` | -3.267 | 1.641 | -0.6316 | 16.25 | 7.527 |
| 33 | `CCS(=O)(=O)CCn1ccc(NC(=O)CCc2cccc(C)c2)n1` | 2.064 | 11.14 | -0.6211 | 1.965 | 6.952 |

2 of the entries, repeated:

{"compound": "O=C1NCC2(CCCN(C(=O)Nc3ccc4scnc4c3)CC2)O1", "stereo": "stereo not drawn", "MtTrpRS": -1.019, "PfKRS1": 4.61, "CoaBC": 1.463, "ClpP1P2": -0.9601, "TcHisRS": -2.597}
{"compound": "Cc1ccc(C(=O)NC(C)Cn2cccn2)c(=O)[nH]1", "stereo": "stereo not drawn", "MtTrpRS": 8.644, "PfKRS1": 2.122, "CoaBC": 14.06, "ClpP1P2": -0.8889, "TcHisRS": -4.255}

Data taken from ChEMBL document CHEMBL3988442, “University of Dundee, Small-Polar-MMV Screening Library” (2021).